Patent US20160200829A1
Results are given in words; binding and its absence hold for the method and conditions named. In cells and extracts the contact can be indirect. Some binding calls cover weakened binding; strength is not graded here.

Sequences of proteins named here, by UniProt entry; tags and fusion partners are left off.
UniProt Q15776: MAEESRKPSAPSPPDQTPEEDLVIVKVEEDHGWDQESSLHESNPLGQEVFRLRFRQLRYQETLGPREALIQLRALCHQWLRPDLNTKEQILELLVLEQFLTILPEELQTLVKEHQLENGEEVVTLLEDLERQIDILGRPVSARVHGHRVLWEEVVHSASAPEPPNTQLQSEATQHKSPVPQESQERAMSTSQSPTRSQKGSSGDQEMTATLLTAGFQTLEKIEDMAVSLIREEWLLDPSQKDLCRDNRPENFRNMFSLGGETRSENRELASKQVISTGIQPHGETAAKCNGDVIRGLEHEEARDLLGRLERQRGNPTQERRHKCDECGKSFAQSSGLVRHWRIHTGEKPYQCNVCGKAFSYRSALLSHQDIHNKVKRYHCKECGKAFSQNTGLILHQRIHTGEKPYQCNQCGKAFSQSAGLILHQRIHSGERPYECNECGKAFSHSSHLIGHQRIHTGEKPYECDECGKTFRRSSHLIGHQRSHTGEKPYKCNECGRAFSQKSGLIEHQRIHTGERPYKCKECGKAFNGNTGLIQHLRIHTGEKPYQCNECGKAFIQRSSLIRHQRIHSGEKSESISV
UniProt Q96GC6: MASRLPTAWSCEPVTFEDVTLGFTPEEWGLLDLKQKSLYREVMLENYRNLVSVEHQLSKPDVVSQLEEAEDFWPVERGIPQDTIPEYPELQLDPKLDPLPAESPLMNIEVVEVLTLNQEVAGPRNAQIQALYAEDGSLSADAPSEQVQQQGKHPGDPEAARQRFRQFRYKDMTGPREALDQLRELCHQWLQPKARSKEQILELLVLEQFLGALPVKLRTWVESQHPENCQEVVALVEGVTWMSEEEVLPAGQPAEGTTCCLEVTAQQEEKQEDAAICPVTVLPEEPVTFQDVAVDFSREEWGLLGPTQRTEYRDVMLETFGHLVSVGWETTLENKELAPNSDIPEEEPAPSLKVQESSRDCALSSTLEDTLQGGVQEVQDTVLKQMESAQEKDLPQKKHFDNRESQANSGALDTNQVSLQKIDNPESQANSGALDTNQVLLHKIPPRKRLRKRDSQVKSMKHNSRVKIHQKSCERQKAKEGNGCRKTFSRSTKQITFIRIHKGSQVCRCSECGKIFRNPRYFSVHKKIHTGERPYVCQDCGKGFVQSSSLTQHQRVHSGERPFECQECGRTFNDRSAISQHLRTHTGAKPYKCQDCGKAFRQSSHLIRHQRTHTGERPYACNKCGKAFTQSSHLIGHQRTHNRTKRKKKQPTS
UniProt Q13263: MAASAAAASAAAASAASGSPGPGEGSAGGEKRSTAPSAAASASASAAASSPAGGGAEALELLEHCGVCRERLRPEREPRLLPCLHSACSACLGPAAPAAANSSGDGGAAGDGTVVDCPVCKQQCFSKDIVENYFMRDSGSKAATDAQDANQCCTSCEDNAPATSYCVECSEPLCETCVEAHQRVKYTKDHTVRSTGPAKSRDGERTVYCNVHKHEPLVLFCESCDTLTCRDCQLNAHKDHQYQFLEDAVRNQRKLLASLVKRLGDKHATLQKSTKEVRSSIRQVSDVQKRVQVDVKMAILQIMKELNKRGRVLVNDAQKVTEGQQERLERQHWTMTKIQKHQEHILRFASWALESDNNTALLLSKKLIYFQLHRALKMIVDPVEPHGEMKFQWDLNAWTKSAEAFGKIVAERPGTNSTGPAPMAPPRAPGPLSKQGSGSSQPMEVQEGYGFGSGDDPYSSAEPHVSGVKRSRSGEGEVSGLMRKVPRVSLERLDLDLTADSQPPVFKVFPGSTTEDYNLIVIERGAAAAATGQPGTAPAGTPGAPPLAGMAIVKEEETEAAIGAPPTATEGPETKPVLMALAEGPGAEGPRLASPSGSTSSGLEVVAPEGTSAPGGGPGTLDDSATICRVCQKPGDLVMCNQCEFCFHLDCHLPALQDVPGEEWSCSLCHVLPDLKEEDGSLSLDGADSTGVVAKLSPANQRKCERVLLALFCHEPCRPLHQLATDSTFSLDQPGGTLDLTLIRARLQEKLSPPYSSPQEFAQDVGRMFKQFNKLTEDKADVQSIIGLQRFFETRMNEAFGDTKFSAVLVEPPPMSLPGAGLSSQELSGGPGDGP

Assays:
ZNF192/ZKSCAN8 (human) = ZNF192/ZKSCAN8 (human) (UniProt Q15776); assay: co-IP with FLAG antibody from HMLE/FLAG-KAP1 lysate, Western blot
ZNF274 (human) = ZNF274 (human) (UniProt Q96GC6); assay: as above

FLAG-KAP1 (from UniProt Q13263 1-835)
binding (ZNF192/ZKSCAN8 (human)): binds
binding (ZNF274 (human)): binds
